Experimental data from patent publication US20220401450A1, “PEDIATRIC FORMULATIONS FOR TREATMENT OF CANCER” (CELGENE CORPORATION, priority 2019, published 2022).

Assay: Preliminary taste (palatability) assessment, swish-and-expectorate by trained panelists
Type: in vivo, human

CC(C)(CNc1nc(Nc2ccnc(C(F)(F)F)c2)nc(-c2cccc(C(F)(F)F)n2)n1)OS(C)(=O)=O [Compound 1B, 2-methyl-1-[(4-[6-(trifluoromethyl)pyridin-2-yl]-6-{[2-(trifluoromethyl)pyridin-4-yl]amino}-1,3,5-triazin-2-yl)amino]propan-2-ol methanesulfonate]
taste masking challenge (bitterness) (at 20 mg): low taste masking challenge
taste masking challenge (bitterness) (at 60 mg): moderate taste masking challenge
amount below which bitterness was no longer perceptible (in vivo): Below 7 mg
